In the supplement of paper PMC12823440, “Inhibitors supercharge kinase turnover through native proteolytic circuits” (Nature, 2025):
Some of the results follow. The calls rarely recur for the same compound in another form.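 Kinases, fused to nanoluciferase, were expressed in K562 cells; luminescence was measured every 4 h from 2 to 18 h as percent of control (DMSO = 100%, positive control = 0%). A time point is decreased if signal falls significantly (2 sigma). Hits were called by the authors by a rule that is not shown; the count of time points alone does not decide it.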

Amino acid sequences for entries named in this document (tags omitted).
UniProt P53350, whole entry: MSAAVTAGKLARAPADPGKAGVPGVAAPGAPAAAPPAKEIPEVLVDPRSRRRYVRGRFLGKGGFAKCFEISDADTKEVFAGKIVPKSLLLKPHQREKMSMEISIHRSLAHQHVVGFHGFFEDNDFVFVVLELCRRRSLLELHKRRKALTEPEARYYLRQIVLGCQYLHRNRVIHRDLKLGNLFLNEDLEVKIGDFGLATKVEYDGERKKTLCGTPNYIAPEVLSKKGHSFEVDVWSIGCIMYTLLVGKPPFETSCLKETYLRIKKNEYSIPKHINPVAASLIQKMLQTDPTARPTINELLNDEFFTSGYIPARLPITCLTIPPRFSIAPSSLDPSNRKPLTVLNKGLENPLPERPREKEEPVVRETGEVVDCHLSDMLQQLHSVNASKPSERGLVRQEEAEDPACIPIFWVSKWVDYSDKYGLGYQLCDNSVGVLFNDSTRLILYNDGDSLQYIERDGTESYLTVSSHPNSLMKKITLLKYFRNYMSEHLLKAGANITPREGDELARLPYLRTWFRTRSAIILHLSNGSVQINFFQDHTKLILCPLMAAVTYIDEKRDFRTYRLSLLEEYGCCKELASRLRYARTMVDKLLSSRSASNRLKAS

What follows are molecules tested against PLK1 (UniProt P53350) (assay: number of time points (of 5) at which kinase-Nluc abundance scored as decreased, DMSO-normalised (count); higher = more persistent destabilization). Settings: K562; 2-18 h.

Row | Compound | number of time points
1 | O=Nc1c(-c2c(O)[nH]c3cc(Br)ccc23)[nH]c2ccccc12 [GSK 3 Inhibitor IX] (2.5 µM) | 0
2 | Cn1c2cc([S+](C)[O-])sc2c2cnn(Cc3cccc(N)c3)c(=O)c21 (stereo not drawn) (2.5 µM) | 0
3 | Cc1cc(-n2c(=O)ccc3c[nH]c4nccc-4c32)ccc1F (10 µM) | 0
4 | CCCn1/c(=N/C(=O)c2cccc(C(N)=O)c2)[nH]c2ccccc21 [Takinib] (10 µM) | 0
5 | CO[C@H]1C[C@@H]2CC[C@@H](C)[C@@](O)(O2)C(=O)C(=O)N2CCCC[C@H]2C(=O)O[C@H]([C@H](C)C[C@@H]2CC[C@@H](OCCO)[C@H](OC)C2)CC(=O)[C@H](C)/C=C(\C)[C@@H](O)[C@@H](OC)C(=O)[C@H](C)C[C@H](C)/C=C/C=C/C=C/1C [Everolimus] (10 µM) | 1
6 | Cc1cccc(-c2[nH]ncc2-c2ccnc3ccccc23)n1 (10 µM) | 0
7 | CC1(N)CCN(c2cccnc2NC(=O)c2nc(-c3ncccc3C(F)(F)F)cnc2N)CC1 [Darovasertib] (10 µM) | 0
8 | COc1cc2c(cc1Nc1ncc(C(N)=O)c(Nc3c(F)cccc3C(F)(F)F)n1)CN(C)CC2 (2.5 µM) | 0
9 | COc1cc2ncnc(Nc3ccc(O)c(Br)c3)c2cc1OC (10 µM) | 0
10 | Nc1nc2c(nc(Br)n2[C@@H]2O[C@@H]3COP(=O)(O)O[C@H]3[C@H]2O)c(=O)[nH]1 [8-Bromo-cGMP (sodium)] (10 µM) | 0
11 | O=c1c2c([nH]n1-c1nc3ccccc3s1)CCCC2 (10 µM) | 0
12 | COC(=O)Nc1ccc(-c2nc(N3CCOCC3)c3cnn(C4CCN(Cc5cccnc5)CC4)c3n2)cc1 (10 µM) | 0
13 | N[C@@H]1CCCN(c2c(/C=C3\SC(=O)NC3=O)cccc2-c2ccccc2)C1 (10 µM) | 0
14 | Nc1nc(N)c2nc(-c3cccc(O)c3)c(-c3cccc(O)c3)nc2n1 (10 µM) | 0
15 | Cn1ncc(NC(=O)c2nc(-c3c(F)cccc3F)sc2N)c1N1CC[C@@H](N)[C@H](F)CC1 (10 µM) | 0
16 | C=C1C(=O)[C@@]23[C@H](O)C[C@@H]4C(C)(C)C(=O)CC[C@@]4(C)[C@@H]2CC[C@@H]1[C@H]3O [Glaucocalyxin A] (2.5 µM) | 0
17 | O=C(NCCO)c1cc(C(=O)NCCO)cc(C(=O)NCCO)c1 (10 µM) | 0
18 | CCC(=O)Nc1cccc(Oc2nc(Nc3ccc(N4CCN(C)CC4)cc3OC)ncc2Cl)c1 (10 µM) | 0
19 | Cc1nn(C)cc1-c1nc2c(N3CCN(Cc4ccc(Cl)cc4)CC3)c(Cl)cnc2[nH]1 (10 µM) | 0

As entered above:
number of time points with N[C@@H]1CCCN(c2c(/C=C3\SC(=O)NC3=O)cccc2-c2ccccc2)C1 (10 µM) is entered as 0
number of time points with COc1cc2ncnc(Nc3ccc(O)c(Br)c3)c2cc1OC (10 µM) is entered as 0

Further entries:

Row | Compound | number of time points
20 | CC(C)Oc1ccc(F)c(-c2cnc(N)c(C(=O)Nc3cnccc3N3CCC[C@@H](C(=O)O)C3)n2)c1 (2 µM) | 0
21 | Nc1ncc(C(=O)NC2CN(C(=O)C3CC3)C2)c2ccc(-c3cccc(F)c3)nc12 (2 µM) | 0
22 | O=C(ON=C1c2ccccc2-c2nc3ccccc3nc21)c1ccco1 (2.5 µM) | 0
23 | CC(C)=CC[C@@H](O)C1=CC(=O)c2c(O)ccc(O)c2C1=O [Shikonin] (10 µM) | 0
24 | COC(=O)Nc1ccc(-c2nc(N3CCOCC3)c3cnn(C4CCN(C(=O)OC)CC4)c3n2)cc1 (10 µM) | 0
25 | CNC(=O)c1ccc2c(c1)ncn2-c1ccc(CC(=O)OC(C)(C)C)cc1 (10 µM) | 0
26 | O=C1CC[C@H](NC(=O)Cc2ccccc2)C(=O)N1 [Antineoplaston A10] (10 µM) | 0
27 | COCCOCCc1c(C)c2cc(OC)c(O)c(C=O)c2oc1=O (10 µM) | 0
28 | Cc1ccc(C(=O)NC2CC2)cc1-n1ncc(C(=O)c2cccc(C#N)c2)c1N [Acumapimod] (10 µM) | 0
29 | O=C(NCCN1CCOCC1)Nc1nc2ccc(Sc3nnc4ccc(-c5ccc(F)cc5)nn34)cc2s1 (10 µM) | 0
30 | COc1cc(F)ccc1-c1ncnc(Nc2cccc(C[S@](C)(=N)=O)c2)n1 [Atuveciclib] (2.5 µM) | 0
31 | CCn1c(-c2nonc2N)nc2c(C#CC(C)(C)O)ncc(OC[C@H]3CCCNC3)c21 (10 µM) | 0
32 | O=c1[nH]ccc2nc(-c3ccc(CN4CCC(c5nc(-c6ccccn6)n[nH]5)CC4)cc3)c(-c3ccccc3)cc12 (10 µM) | 0
33 | COCCOc1ccc2c(c1)ncn2-c1ccc2cccc(N3CCC(N)CC3)c2n1 (10 µM) | 0
34 | CN1CCC(CNc2ccc3ncc(-c4cccc(OC(F)(F)F)c4)n3n2)CC1 (2.5 µM) | 0
35 | Cc1cc(C(=O)NC(C)(C)C)cc(C#Cc2ccc3c4c(oc3c2)C(C)(C)c2cc(NS(C)(=O)=O)ccc2C4=O)n1 (10 µM) | 0
36 | CC(O)(C#Cc1ccc2c(c1)N(c1nc(N)ncc1Cl)CC2)c1nccs1 (stereo not drawn) (2.5 µM) | 0
37 | COc1cc(-c2cc(-c3ccc(N4CCNCC4)cc3)cnc2C)cc(OC)c1OC (10 µM) | 0
38 | Cn1c(CNc2cccc(C(=O)NCc3ccccc3C(F)(F)F)c2)nnc1-c1ccncc1 (10 µM) | 0
